For experiment [1], the target named is HAB1 (clade A protein phosphatase 2C) (Arabidopsis thaliana) (UniProt Q9CAJ0). The experiment in a line: BiFC in N. benthamiana epidermal cells.
The target is the same in experiment [2]. The experiment in a line: yeast two-hybrid growth assay with HAB1 prey (PYL4-HAB1 interaction is ABA-dependent in yeast).

Amino acid sequences for entries named in this document (tags omitted). Residues count along the entry.
UniProt Q9CAJ0, residues 23-511: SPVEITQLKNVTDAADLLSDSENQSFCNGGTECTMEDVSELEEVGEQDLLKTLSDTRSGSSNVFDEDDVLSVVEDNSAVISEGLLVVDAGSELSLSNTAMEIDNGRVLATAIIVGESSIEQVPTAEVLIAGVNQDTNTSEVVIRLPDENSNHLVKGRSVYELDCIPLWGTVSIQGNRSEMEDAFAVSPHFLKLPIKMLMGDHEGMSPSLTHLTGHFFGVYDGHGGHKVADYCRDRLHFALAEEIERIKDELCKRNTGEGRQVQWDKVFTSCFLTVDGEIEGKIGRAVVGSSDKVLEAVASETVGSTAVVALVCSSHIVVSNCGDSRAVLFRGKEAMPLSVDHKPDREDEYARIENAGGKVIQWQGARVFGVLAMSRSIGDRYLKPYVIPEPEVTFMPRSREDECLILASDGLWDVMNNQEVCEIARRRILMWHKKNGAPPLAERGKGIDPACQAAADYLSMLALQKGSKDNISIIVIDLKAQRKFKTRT

Our source for the binding values is patent US20160068860A1, “TRANSGENIC PLANTS” (CONSEJO SUPERIOR DE INVESTIGACIONES CIENTIFICAS (CSIC), priority 2013, published 2016).

Changes are numbered by the printed parent chain. Numbers in names are those of the source. These are yes or no findings as the source states them, for the method shown. Some binding calls cover weakened binding; strength is not graded here.

B1: AtPYL4 wild type polypeptide (At2g38310) (receptor)
chain: MLAVHRPSSAVSDGDSVQIPMMIASFQKRFPSLSRDSTAARFHTHEVGPNQCCSAVIQEISAPISTVWSVVRRFDNPQAYKHFLKSCSVIGGDGDNVGSLRQVHVVSGLPAASSTERLDILDDERHVISFSVVGGDHRLSNYRSVTTLHPSPISGTVVVESYVVDVPPGNTKEETCDFVDVIVRCNLQSLAKIAENTAAESKKKMSL
As for B1, the binding entry in experiment [1] is reported as “binds”.

B2: PYL4H82R V97A (AtPYL H82 and V97A) (receptor)
chain: B1 chain with H82R, V97A
Regarding B2, the binding result in experiment [2] is given as “binds”.

B3: PYL4V97A (AtPYL V97A) (receptor)
chain: B1 chain with V97A
Turning to B3, the binding entry in experiment [2] is given as “binds”.

B4: PYL4C176R F130Y (AtPYL F130Y and C176R) (receptor)
chain: B1 chain with F130Y, C176R
As for B4, the binding result in experiment [2] was “binds”.

B5: PYL4A194T (AtPYL A194T) (receptor)
chain: B1 chain with A194T
Take B5: the binding entry in experiment [2] and in experiment [1] was “binds” each time.
